Data as given in the supplement of paper PMC10849652.
The other results are listed elsewhere or left out.

Amino acid sequences for entries named in this document (tags omitted). A change or cut given only in a name is not applied to a line headed by its entry.
UniProt Q9NVI7: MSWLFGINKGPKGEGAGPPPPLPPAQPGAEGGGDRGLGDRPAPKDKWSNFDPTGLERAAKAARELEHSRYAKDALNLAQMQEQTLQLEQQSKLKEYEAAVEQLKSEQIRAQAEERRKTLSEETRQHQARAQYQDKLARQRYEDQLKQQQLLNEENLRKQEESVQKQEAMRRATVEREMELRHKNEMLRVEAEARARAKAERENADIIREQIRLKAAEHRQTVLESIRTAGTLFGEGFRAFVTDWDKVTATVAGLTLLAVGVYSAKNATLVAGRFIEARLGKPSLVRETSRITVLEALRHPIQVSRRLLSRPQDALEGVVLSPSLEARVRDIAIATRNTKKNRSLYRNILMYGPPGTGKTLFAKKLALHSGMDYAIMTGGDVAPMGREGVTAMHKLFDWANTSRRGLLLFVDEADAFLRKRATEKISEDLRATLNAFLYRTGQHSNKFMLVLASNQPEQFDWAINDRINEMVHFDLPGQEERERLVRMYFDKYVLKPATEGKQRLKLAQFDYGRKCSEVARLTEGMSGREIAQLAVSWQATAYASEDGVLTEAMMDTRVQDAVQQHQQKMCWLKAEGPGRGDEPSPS
UniProt P15336: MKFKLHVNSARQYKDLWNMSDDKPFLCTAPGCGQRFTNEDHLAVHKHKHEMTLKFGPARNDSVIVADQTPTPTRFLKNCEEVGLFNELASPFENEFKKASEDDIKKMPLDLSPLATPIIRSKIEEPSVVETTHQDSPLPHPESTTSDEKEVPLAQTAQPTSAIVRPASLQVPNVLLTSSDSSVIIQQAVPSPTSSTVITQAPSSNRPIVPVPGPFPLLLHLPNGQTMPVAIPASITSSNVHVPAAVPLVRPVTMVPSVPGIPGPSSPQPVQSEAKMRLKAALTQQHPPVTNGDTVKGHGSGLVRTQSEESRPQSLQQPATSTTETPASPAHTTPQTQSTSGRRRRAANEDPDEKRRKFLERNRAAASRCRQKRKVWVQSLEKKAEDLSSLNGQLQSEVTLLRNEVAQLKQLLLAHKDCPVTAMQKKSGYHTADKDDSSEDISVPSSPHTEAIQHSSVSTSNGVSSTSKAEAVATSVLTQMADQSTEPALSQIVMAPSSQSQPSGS
UniProt P35670: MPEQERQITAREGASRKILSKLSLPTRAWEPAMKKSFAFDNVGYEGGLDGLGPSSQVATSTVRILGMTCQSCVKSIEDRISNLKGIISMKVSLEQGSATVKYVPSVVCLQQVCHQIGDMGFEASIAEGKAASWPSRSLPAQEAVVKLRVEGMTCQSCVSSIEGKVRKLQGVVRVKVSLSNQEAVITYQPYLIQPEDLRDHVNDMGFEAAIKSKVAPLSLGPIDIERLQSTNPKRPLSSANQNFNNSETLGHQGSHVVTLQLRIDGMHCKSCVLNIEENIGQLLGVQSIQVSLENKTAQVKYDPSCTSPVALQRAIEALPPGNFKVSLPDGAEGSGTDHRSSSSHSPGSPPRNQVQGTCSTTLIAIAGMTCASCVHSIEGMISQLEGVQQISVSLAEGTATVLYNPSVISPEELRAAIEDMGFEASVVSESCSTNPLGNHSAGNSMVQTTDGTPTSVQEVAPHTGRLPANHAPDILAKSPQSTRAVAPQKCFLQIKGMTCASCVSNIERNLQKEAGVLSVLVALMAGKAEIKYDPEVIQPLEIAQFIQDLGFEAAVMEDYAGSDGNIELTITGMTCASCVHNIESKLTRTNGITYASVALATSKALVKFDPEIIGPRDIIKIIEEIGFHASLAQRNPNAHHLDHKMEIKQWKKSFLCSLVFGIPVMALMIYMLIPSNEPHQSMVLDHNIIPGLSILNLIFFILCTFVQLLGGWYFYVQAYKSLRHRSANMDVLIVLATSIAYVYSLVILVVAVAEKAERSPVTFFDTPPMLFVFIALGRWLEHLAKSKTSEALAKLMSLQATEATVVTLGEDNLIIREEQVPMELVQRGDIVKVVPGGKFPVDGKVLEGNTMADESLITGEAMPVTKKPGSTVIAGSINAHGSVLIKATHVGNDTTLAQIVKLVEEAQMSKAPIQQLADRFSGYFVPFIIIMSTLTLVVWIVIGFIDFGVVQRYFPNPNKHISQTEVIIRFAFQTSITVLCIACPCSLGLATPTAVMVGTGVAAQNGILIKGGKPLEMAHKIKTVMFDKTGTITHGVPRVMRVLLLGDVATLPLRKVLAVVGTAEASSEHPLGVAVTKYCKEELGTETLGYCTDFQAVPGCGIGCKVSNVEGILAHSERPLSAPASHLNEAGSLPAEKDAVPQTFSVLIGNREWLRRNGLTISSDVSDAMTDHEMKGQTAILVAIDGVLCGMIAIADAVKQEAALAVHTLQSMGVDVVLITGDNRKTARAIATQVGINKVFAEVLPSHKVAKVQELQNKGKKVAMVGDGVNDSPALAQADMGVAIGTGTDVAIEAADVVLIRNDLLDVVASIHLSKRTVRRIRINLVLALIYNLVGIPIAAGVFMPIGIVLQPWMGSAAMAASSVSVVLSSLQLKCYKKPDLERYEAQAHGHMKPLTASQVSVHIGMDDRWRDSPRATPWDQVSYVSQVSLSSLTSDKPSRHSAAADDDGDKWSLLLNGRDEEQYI
UniProt P32121, whole entry, looked up: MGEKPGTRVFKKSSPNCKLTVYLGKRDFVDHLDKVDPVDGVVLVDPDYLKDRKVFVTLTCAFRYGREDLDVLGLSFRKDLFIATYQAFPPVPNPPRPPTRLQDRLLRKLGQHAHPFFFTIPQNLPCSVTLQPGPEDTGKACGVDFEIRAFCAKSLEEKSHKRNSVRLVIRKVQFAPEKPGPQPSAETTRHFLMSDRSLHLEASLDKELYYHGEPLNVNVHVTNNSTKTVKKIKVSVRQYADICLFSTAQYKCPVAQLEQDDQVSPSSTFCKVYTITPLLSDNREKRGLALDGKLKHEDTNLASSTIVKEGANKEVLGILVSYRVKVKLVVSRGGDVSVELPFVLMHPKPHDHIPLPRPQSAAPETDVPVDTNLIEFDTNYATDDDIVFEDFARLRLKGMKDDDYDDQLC
UniProt Q9NT62, whole entry, looked up: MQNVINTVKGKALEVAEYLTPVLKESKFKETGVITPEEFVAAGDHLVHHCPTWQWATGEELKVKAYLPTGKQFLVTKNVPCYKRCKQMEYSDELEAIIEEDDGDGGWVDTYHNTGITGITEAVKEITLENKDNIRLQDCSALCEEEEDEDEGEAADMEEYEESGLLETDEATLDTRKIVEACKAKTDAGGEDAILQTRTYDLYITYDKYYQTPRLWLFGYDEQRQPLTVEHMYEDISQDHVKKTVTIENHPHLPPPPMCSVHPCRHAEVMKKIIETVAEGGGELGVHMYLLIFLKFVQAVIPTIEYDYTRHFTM
UniProt Q9UII2: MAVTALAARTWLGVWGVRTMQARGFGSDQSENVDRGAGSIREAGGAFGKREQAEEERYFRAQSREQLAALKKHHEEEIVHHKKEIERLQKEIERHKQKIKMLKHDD
UniProt Q9NQ11: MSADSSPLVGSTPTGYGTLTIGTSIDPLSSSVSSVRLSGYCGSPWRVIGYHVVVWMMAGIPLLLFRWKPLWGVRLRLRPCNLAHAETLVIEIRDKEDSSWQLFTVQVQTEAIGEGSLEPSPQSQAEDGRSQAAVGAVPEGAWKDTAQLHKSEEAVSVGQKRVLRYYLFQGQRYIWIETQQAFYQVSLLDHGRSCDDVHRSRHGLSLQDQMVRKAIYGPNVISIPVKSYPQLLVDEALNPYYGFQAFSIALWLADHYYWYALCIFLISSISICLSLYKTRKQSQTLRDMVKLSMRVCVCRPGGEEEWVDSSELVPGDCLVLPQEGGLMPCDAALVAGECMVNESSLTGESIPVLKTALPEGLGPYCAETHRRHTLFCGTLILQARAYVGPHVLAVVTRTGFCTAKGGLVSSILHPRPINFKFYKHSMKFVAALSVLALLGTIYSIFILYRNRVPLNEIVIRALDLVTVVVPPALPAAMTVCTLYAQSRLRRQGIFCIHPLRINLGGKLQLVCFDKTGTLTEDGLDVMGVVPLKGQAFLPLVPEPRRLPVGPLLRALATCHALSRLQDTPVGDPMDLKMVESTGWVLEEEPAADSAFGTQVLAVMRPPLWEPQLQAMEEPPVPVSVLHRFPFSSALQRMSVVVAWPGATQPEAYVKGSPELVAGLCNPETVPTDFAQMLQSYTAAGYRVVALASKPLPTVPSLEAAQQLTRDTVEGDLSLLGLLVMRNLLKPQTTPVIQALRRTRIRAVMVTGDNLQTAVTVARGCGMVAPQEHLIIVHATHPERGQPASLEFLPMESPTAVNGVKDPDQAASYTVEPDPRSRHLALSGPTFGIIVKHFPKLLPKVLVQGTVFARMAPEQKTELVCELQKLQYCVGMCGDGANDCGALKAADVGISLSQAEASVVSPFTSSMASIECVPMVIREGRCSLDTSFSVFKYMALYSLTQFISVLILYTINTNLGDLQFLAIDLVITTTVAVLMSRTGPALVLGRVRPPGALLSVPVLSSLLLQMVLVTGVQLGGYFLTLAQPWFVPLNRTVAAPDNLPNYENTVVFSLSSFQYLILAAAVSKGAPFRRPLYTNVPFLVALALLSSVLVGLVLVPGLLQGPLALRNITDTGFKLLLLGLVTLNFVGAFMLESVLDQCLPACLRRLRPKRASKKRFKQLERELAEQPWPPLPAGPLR
UniProt P56381: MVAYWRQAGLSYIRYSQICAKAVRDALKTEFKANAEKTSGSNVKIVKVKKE
UniProt P98196: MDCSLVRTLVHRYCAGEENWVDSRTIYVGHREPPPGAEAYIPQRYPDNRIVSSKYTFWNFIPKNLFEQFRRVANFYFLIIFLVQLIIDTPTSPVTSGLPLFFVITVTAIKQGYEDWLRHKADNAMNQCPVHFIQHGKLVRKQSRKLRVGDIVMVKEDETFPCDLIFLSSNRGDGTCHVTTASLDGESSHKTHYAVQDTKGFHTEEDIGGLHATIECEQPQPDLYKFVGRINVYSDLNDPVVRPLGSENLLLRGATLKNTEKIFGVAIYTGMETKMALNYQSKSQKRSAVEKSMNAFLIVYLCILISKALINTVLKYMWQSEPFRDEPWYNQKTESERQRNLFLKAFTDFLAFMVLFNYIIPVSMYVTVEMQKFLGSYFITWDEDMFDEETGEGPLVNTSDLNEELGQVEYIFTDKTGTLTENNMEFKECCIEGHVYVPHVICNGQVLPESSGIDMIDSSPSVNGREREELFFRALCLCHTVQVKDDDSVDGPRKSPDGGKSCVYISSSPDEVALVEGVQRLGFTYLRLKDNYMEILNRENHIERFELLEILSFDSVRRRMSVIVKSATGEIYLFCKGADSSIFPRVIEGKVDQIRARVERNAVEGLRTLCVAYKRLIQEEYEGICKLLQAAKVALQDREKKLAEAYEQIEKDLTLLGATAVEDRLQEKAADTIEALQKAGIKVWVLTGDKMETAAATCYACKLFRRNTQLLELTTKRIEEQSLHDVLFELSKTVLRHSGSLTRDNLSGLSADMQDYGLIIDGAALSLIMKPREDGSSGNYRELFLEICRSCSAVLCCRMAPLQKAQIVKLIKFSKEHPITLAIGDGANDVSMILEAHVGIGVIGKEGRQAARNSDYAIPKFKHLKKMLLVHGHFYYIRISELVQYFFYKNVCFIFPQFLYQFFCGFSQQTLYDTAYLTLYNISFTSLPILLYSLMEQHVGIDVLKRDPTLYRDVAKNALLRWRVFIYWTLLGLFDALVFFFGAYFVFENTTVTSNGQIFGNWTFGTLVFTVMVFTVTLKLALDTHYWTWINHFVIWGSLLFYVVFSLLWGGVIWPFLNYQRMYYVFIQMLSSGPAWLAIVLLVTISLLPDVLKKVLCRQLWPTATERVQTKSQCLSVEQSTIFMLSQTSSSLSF
UniProt O95671: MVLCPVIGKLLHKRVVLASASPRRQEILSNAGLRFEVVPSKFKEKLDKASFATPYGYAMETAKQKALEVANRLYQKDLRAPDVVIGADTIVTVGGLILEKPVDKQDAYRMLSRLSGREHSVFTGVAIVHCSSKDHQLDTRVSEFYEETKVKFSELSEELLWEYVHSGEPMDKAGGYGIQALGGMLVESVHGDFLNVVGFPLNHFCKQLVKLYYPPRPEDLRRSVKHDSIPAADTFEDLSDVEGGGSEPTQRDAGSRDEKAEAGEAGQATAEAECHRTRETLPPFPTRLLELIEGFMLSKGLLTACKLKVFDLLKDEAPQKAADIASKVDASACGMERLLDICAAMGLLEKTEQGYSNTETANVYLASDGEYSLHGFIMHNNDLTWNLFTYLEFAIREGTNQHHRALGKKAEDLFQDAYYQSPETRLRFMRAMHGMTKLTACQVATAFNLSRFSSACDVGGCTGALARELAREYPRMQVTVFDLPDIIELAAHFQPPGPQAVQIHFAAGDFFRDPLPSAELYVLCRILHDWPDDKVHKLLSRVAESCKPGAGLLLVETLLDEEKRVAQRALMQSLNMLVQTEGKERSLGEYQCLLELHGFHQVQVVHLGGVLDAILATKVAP
UniProt Q9NVP2, whole entry, looked up: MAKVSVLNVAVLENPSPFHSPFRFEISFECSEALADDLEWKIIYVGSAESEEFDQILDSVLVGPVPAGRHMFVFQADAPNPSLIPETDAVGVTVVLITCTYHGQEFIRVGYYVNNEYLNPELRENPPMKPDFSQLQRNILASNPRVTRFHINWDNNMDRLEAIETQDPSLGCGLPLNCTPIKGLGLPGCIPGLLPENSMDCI

How the values were obtained:
Experiment in all cases: log2 fold change, soluble protein after heating vs DMSO (PISA); higher = thermal stabilisation; K562 cells, 10 uM, 30 min; active = over 0.2 and 3.5 SD of the protein, either way, in both replicates (recomputed)
bafetinib = compound: Cc1ccc(NC(=O)c2ccc(CN3CC[C@H](N(C)C)C3)c(C(F)(F)F)c2)cc1Nc1nccc(-c2cncnc2)n1 [bafetinib]
Summary of the method: (§1)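 For each measurement, 10 μM compound was applied for 30 min to K562 cells at 2×10^6 cells/mL. Aliquots were heated for 3 min across 48°C-58°C, pooled, and extracted in PBS with 0.5% NP-40 at 4°C; the supernatant after 21,000xg for 90 min was soluble protein. This was quantified by TMTpro 16plex LC-MS/MS with channel sums equalised, and thermal stability was reported relative to control samples from duplicates, on a log2 fold-change scale.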

[1] = compound: Cc1cccc(CC(=O)N2CCc3c2ccc(-c2cn(C)c4ncnc(N)c24)c3F)n1
Summary of the method: as §1

nilotinib = compound: Cc1cn(-c2cc(NC(=O)c3ccc(C)c(Nc4nccc(-c5cccnc5)n4)c3)cc(C(F)(F)F)c2)cn1 [nilotinib]
Summary of the method: as §1

[2] = compound: Cc1nc(Nc2n[nH]c3c2CN(C(=O)N[C@H](CN(C)C)c2ccccc2)C3(C)C)c2sccc2n1
Summary of the method: as §1

dasatinib = compound: Cc1nc(Nc2ncc(C(=O)Nc3c(C)cccc3Cl)s2)cc(N2CCN(CCO)CC2)n1 [dasatinib]
Summary of the method: as §1

[3] = compound: Cc1ncc(-c2ccnc(Nc3ccc(S(C)(=O)=O)cc3)n2)n1C(C)C
Summary of the method: as §1

[4] = compound: Cn1cc(-c2ccc3c(c2)CCN3C(=O)Cc2cccc(C(F)(F)F)c2)c2c(N)ncnc21
Summary of the method: as §1

[5] = compound: Cn1cc(-c2ccc3nnc(C(F)(F)c4ccc5ncccc5c4)n3n2)cn1
Summary of the method: as §1

tipifarnib = compound: Cn1cncc1[C@@](N)(c1ccc(Cl)cc1)c1ccc2c(c1)c(-c1cccc(Cl)c1)cc(=O)n2C [tipifarnib]
Summary of the method: as §1

mubritinib = compound: FC(F)(F)c1ccc(/C=C/c2nc(COc3ccc(CCCCn4ccnn4)cc3)co2)cc1 [mubritinib]
Summary of the method: as §1

Measured: log2 fold change

ATAD3B (UniProt Q5T9A4)
inactive: bafetinib -0.014 | [1] 0.018 | nilotinib -0.072 | [2] -0.039 | dasatinib -0.099 | [3] 0.027 | [4] -0.103 | [5] -0.186 | tipifarnib 0.03 | mubritinib -0.37

ATAD3A isoform 2 (UniProt Q9NVI7)
inactive: bafetinib -0.104 | [1] 0.035 | nilotinib -0.141 | [2] -0.053 | dasatinib -0.094 | [3] 0 | [4] -0.082 | [5] -0.101 | tipifarnib 0.097 | mubritinib -0.215

ATF2 (UniProt P15336)
inactive: bafetinib 0.024 | [1] 0.05 | nilotinib -0.181 | [2] 0.123 | dasatinib 0.218 | [3] 0.006 | [4] 0.02 | [5] 0.005 | tipifarnib -0.06 | mubritinib 0.137

ARPC1B (UniProt O15143)
inactive: bafetinib -0.028 | [1] 0.068 | nilotinib 0.141 | [2] -0.028 | dasatinib 0.014 | [3] 0.067 | [4] 0.029 | [5] -0.062 | tipifarnib -0.079 | mubritinib -0.014

ATG101 (UniProt Q9BSB4)
inactive: bafetinib -0.047 | [1] -0.03 | nilotinib 0.025 | [2] 0.088 | dasatinib 0.019 | [3] -0.021 | [4] -0.035 | [5] -0.046 | tipifarnib 0.049 | mubritinib 0.05

ARL6IP4 (UniProt Q66PJ3)
active: [2] -0.459
inactive: bafetinib -0.042 | [1] 0.002 | nilotinib -0.012 | dasatinib 0.016 | [3] 0.013 | [4] 0.112 | [5] -0.038 | tipifarnib 0.019 | mubritinib 0.023

ARL8A (UniProt Q96BM9)
inactive: bafetinib -0.101 | [1] -0.042 | nilotinib -0.008 | [2] 0.049 | dasatinib 0.027 | [3] -0.001 | [4] 0.031 | [5] 0.096 | tipifarnib 0.084 | mubritinib 0.026

ATP7B (UniProt P35670)
inactive: bafetinib -0.009 | [1] -0.032 | nilotinib 0.006 | [2] -0.017 | dasatinib -0.153 | [3] 0.087 | [4] 0.015 | [5] 0.001 | tipifarnib 0.019 | mubritinib -0.079

ARRB2 isoform 4 (UniProt P32121)
inactive: bafetinib -0.05 | [1] -0.025 | nilotinib 0.004 | [2] -0.026 | dasatinib 0.031 | [3] 0.009 | [4] 0.037 | [5] 0.07 | tipifarnib -0.006 | mubritinib 0.04

ARSA (UniProt P15289)
inactive: bafetinib -0.003 | [1] -0.017 | nilotinib 0.001 | [2] 0.157 | dasatinib 0.154 | [3] 0.023 | [4] 0.001 | [5] -0.024 | tipifarnib -0.007 | mubritinib -0.011

ATP5F1D (UniProt P30049)
inactive: bafetinib 0.019 | [1] -0.065 | nilotinib -0.043 | [2] 0.035 | dasatinib 0.097 | [3] 0.007 | [4] 0.015 | [5] 0.058 | tipifarnib 0.023 | mubritinib 0.041

ATG3 (UniProt Q9NT62)
inactive: bafetinib -0.059 | [1] -0.026 | nilotinib 0.029 | [2] 0.01 | dasatinib 0.017 | [3] -0.012 | [4] 0.013 | [5] 0.026 | tipifarnib -0.008 | mubritinib 0.059

ASDURF (UniProt L0R819)
inactive: bafetinib -0.021 | [1] -0.038 | nilotinib 0.009 | [2] 0.008 | dasatinib 0.06 | [3] -0.009 | [4] -0.016 | [5] -0.091 | tipifarnib 0.004 | mubritinib -0.005

ARL1 (UniProt P40616)
inactive: bafetinib 0.114 | [1] 0.205 | nilotinib -0.174 | [2] -0.017 | dasatinib -0.131 | [3] 0.096 | [4] 0.055 | [5] 0.019 | tipifarnib -0.123 | mubritinib -0.046

ATP5IF1 (UniProt Q9UII2)
inactive: bafetinib -0.039 | [1] -0.101 | nilotinib -0.038 | [2] 0.005 | dasatinib 0.055 | [3] -0.042 | [4] -0.002 | [5] 0.094 | tipifarnib 0.059 | mubritinib 0.033

Taken from above (2 entries):
ASDURF (UniProt L0R819)
inactive: bafetinib -0.021 | [1] -0.038 | nilotinib 0.009 | [2] 0.008 | dasatinib 0.06 | [3] -0.009 | [4] -0.016 | [5] -0.091 | tipifarnib 0.004 | mubritinib -0.005

ARL1 (UniProt P40616)
inactive: bafetinib 0.114 | [1] 0.205 | nilotinib -0.174 | [2] -0.017 | dasatinib -0.131 | [3] 0.096 | [4] 0.055 | [5] 0.019 | tipifarnib -0.123 | mubritinib -0.046

The listing continues.

ATP5PO (UniProt P48047)
inactive: bafetinib -0.02 | [1] -0.021 | nilotinib 0.02 | [2] 0.025 | dasatinib 0.075 | [3] -0.021 | [4] -0.038 | [5] 0.028 | tipifarnib 0.051 | mubritinib 0.02

ATP13A2 (UniProt Q9NQ11)
inactive: bafetinib -0.002 | [1] 0.001 | nilotinib 0.01 | [2] 0.014 | dasatinib -0.007 | [3] 0.018 | [4] 0.045 | [5] 0.069 | tipifarnib 0.06 | mubritinib 0.108

ATP5F1E (UniProt P56381)
inactive: bafetinib -0.104 | [1] -0.02 | nilotinib -0.002 | [2] -0.023 | dasatinib 0.109 | [3] -0.046 | [4] -0.029 | [5] 0.065 | tipifarnib 0.067 | mubritinib 0.042

ATP11A (UniProt P98196)
inactive: bafetinib -0.028 | [1] -0.002 | nilotinib 0.113 | [2] -0.012 | dasatinib -0.01 | [3] 0.029 | [4] -0.006 | [5] 0.01 | tipifarnib 0.051 | mubritinib 0.056

ASNS (UniProt P08243)
inactive: bafetinib -0.055 | [1] 0.02 | nilotinib 0.002 | [2] 0.021 | dasatinib 0 | [3] -0.003 | [4] 0.034 | [5] 0.015 | tipifarnib -0.033 | mubritinib 0.012

ATP1B1 (UniProt P05026)
inactive: bafetinib 0.037 | [1] -0.083 | nilotinib 0.144 | [2] -0.088 | dasatinib -0.03 | [3] 0.079 | [4] 0.129 | [5] 0.07 | tipifarnib -0.008 | mubritinib 0.093

ATAD1 (UniProt Q8NBU5)
inactive: bafetinib -0.007 | [1] 0.048 | nilotinib 0.02 | [2] -0.008 | dasatinib -0.033 | [3] -0.002 | [4] 0.037 | [5] -0.026 | tipifarnib 0.014 | mubritinib -0.028

ATP11B (UniProt Q9Y2G3)
inactive: bafetinib -0.057 | [1] -0.072 | nilotinib 0.035 | [2] 0.044 | dasatinib 0.019 | [3] 0.166 | [4] 0.004 | [5] 0.015 | tipifarnib -0.008 | mubritinib -0.007

ATP6V0A1 (UniProt Q93050)
inactive: bafetinib -0.078

ARL2 (UniProt P36404)
inactive: bafetinib 0.014 | [1] 0.04 | nilotinib -0.045 | [2] 0.009 | dasatinib 0.018 | [3] 0.01 | [4] 0.015 | [5] -0.012 | tipifarnib -0.038 | mubritinib -0.024

ASMTL (UniProt O95671)
inactive: bafetinib 0.256 | [1] 0.081 | nilotinib -0.242 | [2] 0.006 | dasatinib 0 | [3] -0.037 | [4] 0.052 | [5] 0.2 | tipifarnib -0.031 | mubritinib 0.15

ARL5A (UniProt Q9Y689)
inactive: bafetinib 0.054 | [1] -0.067 | nilotinib 0 | [2] -0.001 | dasatinib 0.016 | [3] 0.026 | [4] -0.043 | [5] 0.099 | tipifarnib 0.016 | mubritinib 0.022

ASF1B (UniProt Q9NVP2)
inactive: bafetinib -0.018 | [1] 0.004 | nilotinib -0.113 | [2] -0.184 | dasatinib 0.073 | [3] -0.062 | [4] -0.054 | [5] 0.099 | tipifarnib 0.101 | mubritinib -0.294
